Results from PubChem BioAssay AID504834 (National Center for Advancing Translational Sciences (NCATS), 2011).
The campaign covered roughly 320,000 compounds. About 22,000 (6.9%) were called active. This list was built around the results that the source calls inconclusive (neither active nor inactive); the mix of calls is not that of the screen. The call rests on the fitted dose curve; in most records, active means well fitted inhibition curve with a large enough effect; inconclusive means small, poorly fitted or top-dose-only effect, or another doubt; inactive means no such curve, though single readings can be large or run the other way. Potencies of inconclusive entries are doubtful fits and often do not repeat.

Test: Primary qHTS for delayed death inhibitors of the malarial parasite plastid, 96 hour incubation
Settings: P. falciparum luciferase reporter growth; series mostly up to 28.7 µM; activity change, negative = inhibition: at the top concentration
How it was run: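 Two parasite generations (96 h, 37 C, 5% CO2) of compound exposure in infected erythrocytes (0.05% parasitemia, 2% hematocrit). Luciferase-reporter P. falciparum; decreased luminescence indicates inhibited growth, aimed at apicoplast-acting delayed death.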
On the % scale 0 is the no-effect control and ±100 the full control effect; potency means the concentration at half of the fitted maximal effect.

Row | Structure (SMILES) | activity change, negative = inhibition | Potency
1 | COc1ccc(-c2nn(-c3ccccc3)cc2/C=C\C(=O)Nc2ccc(C(=O)O)cc2)cc1 | inactive: 23.8% | –
2 | CC(C)(C)c1ccc(OCCC(=O)Nc2cccc(S(=O)(=O)N3CCCC3)c2)cc1 | – | inconclusive: 0.117 µM [inhibitor, full curve, poor fit]
3 | CN(C)CCCN(Cc1ccccc1)C(=S)Nc1ccc(SC(F)F)cc1 | – | inconclusive: 11.7 µM [inhibitor, single point]
4 | O=C(CCc1ccc(O)c(O)c1)N/N=C/c1ccc2c(c1)OCO2 | – | inconclusive: 18.5 µM [inhibitor, single point]
5 | Cc1ccc(-c2c(NCCc3ccccc3)c(=O)c2=O)cc1 | inactive: -3.83% | –
6 | CC1(OC(=O)C2CCCC2)C(=O)C=C2C=C(c3ccsc3)N(CCc3ccccn3)C=C2C1=O (configuration not stated) | – | inconclusive: 11.7 µM [inhibitor, single point]
7 | CC1(C)CC(=O)C2=C(C1)NC(=O)NC2c1ccc([N+](=O)[O-])cc1 (configuration not stated) | inactive: 11.8% | –
8 | CCOCCCn1c(SCC(=O)/C(C#N)=C(\C)N)nc2ccccc2c1=O | – | inconclusive: 10.4 µM [inhibitor, single point]
9 | O=C(COc1c(Cl)cccc1Cl)Nc1ccccc1N1CCCC1 | – | inconclusive: 11.7 µM [inhibitor, single point]
10 | CC1CCCN(S(=O)(=O)c2ccc(NC(=O)C3CCN(C(=O)c4ccco4)CC3)cc2)C1 (configuration not stated) | – | inconclusive: 9.28 µM [inhibitor, partial curve, poor fit]
11 | CC(=O)Nc1ccccc1/C=C/c1ccc2c(C)cc(C)c(O)c2n1 | – | inconclusive: 11.7 µM [inhibitor, single point]
12 | COc1ccc(C(=O)Nc2nnc(SCC(=O)NC3CC3)s2)cc1 | – | inconclusive: 18.5 µM [inhibitor, partial curve, poor fit]
13 | CCOc1ccc(OCC)c(NC(=O)C2CCN(S(=O)(=O)c3cccnc3)CC2)c1 | – | inconclusive: 8.28 µM [inhibitor, partial curve, poor fit]
14 | COC(=O)c1cc(Br)c(=O)n(Cc2ccc3c(c2)OCO3)c1 | – | active: 9.28 µM
15 | CCOc1ccccc1N1CCN(C(=O)C(Sc2ccccc2)c2ccccc2)CC1 (configuration not stated) | inactive: 187% | –
16 | O=C(c1cccc(NS(=O)(=O)c2cccc(C(F)(F)F)c2)c1)N1CCOCC1 | – | inconclusive: 14.7 µM [inhibitor, single point]
17 | CCC(CC)NC(=O)Nc1ccccc1C | – | inconclusive: 18.5 µM [inhibitor, single point]
18 | COCCn1c(=O)[nH]c2cc(C(=O)Nc3ccc(OC)c(Cl)c3)ccc2c1=O | – | inconclusive: 0.185 µM [inhibitor, full curve, poor fit]
19 | COc1cccc(N2CCN(S(=O)(=O)c3ccc4c(c3)NC(=O)CS4)CC2)c1 | – | inconclusive: 18.5 µM [inhibitor, single point]
20 | O=C(COC(=O)c1cc([N+](=O)[O-])ccc1N1CCOCC1)NCCc1ccccc1 | inactive: 1.51% | –
21 | CC(=O)Nc1sc2c(c1C(c1cccc(F)c1)N1CCN(CCO)CC1)CCCC2 (configuration not stated) | – | active: 7.38 µM
22 | Cc1ccc(S(=O)(=O)N2CCN(CCOc3ccccc3)CC2)cc1 | inactive: -3.04% | –
23 | COc1ccccc1-c1oc2ccccc2c1-c1ccc2cc[nH]c2c1 | – | inconclusive: 2.62 µM [inhibitor, single point]

Complete entries, looked up by structure. Order of values: activity change, negative = inhibition	Potency
CC1(OC(=O)C2CCCC2)C(=O)C=C2C=C(c3ccsc3)N(CCc3ccccn3)C=C2C1=O (configuration not stated) is entered as –	inconclusive: 11.7 µM [inhibitor, single point]
CCOCCCn1c(SCC(=O)/C(C#N)=C(\C)N)nc2ccccc2c1=O is entered as –	inconclusive: 10.4 µM [inhibitor, single point]
O=C(c1cccc(NS(=O)(=O)c2cccc(C(F)(F)F)c2)c1)N1CCOCC1 is entered as –	inconclusive: 14.7 µM [inhibitor, single point]

The list goes on:

Row | Structure (SMILES) | activity change, negative = inhibition | Potency
24 | Cc1ccc(NC(=O)COC(=O)c2ccnn2C)cc1 | – | inconclusive: 2.62 µM [inhibitor, full curve]
25 | O=C(Cc1cccs1)Nc1ccc(S(=O)(=O)N2CCCC2)cc1 | inactive: 10.8% | –
26 | Cc1ccc(Cl)cc1NC(=O)N(C)CCO | inactive: 60.4% | –
27 | COc1ccc(NC(=O)CN2CCN(c3ccccc3C)CC2)cc1 | – | inconclusive: 13.1 µM [inhibitor, single point]
28 | Cc1ccc(-n2ncc3c2CC(C)(C)CC3NC(=O)CN2CCCC2=O)cc1 (configuration not stated) | – | inconclusive: 2.33 µM [inhibitor, full curve]
29 | COc1cc(C(=O)NCC(c2ccco2)N2CCCC2)ccc1OCc1c(C)noc1C (configuration not stated) | – | inconclusive: 3.7 µM [inhibitor, full curve, poor fit]
30 | O=C1CC2(CCN(C(=O)COc3ccc(Cl)cc3)CC2)Oc2ccccc21 | – | inconclusive: 11.7 µM [inhibitor, single point]
31 | COc1cc(NC(=S)Nc2ccccn2)c(OC)cc1Cl | – | inconclusive: 18.5 µM [inhibitor, single point]
32 | COc1ccccc1NC(=O)c1ccc(N2CC3CC(C2)c2cccc(=O)n2C3)c(NC(=O)c2cccnc2)c1 (configuration not stated) | – | inconclusive: 18.5 µM [inhibitor, single point]
33 | Cc1cc(=O)oc2cc(OCC(O)CN3CCN(c4ccccc4)CC3)ccc12 (configuration not stated) | – | inconclusive: 0.0928 µM [inhibitor, full curve, poor fit]
34 | COc1ccc(C(CNC(=O)c2ccc(S(=O)(=O)N3CCCC3)cc2)N(C)C)cc1OC (configuration not stated) | – | inconclusive: 0.0928 µM [inhibitor, full curve, poor fit]
35 | O=C(Cn1ccccc1=O)Nc1ccc(Cl)c(S(=O)(=O)N2CCCCC2)c1 | – | inconclusive: 13.1 µM [inhibitor, partial curve]
36 | Cn1c(CN2CCOCC2)nc2cc(NC(=O)COc3ccc([N+](=O)[O-])cc3)ccc21 | – | inconclusive: 13.1 µM [inhibitor, single point]
37 | COc1ccc(-c2csc(NC(=O)c3ccc(OCC(=O)N4CCOCC4)c(OC)c3)n2)cc1 | – | inconclusive: 11.7 µM [inhibitor, single point]
38 | COc1ccc(N2C(=O)C3ON(C4SC(=S)N(C)C4(C)C)C(c4ccc(Cl)cc4)C3C2=O)cc1 (configuration not stated) | – | inconclusive: 10.4 µM [inhibitor, single point]
39 | C=C[C@@H]1C[C@@]1(C)[C@@H](NP(=O)(c1ccccc1)c1ccccc1)c1ccccc1 | – | inconclusive: 10.4 µM [inhibitor, single point]
40 | O=C(COc1ccccc1Cl)N1CCN(c2ccc([N+](=O)[O-])c(N3CCOCC3)c2)CC1 | – | inconclusive: 10.4 µM [inhibitor, single point]
41 | CC(=O)Nc1ccc(C(=O)Nc2ccc3c(c2)OCCO3)cc1 | – | inconclusive: 4.65 µM [inhibitor, partial curve, poor fit]
42 | CCCC1(C(=O)OC)NC(c2ccc(OC)c(OC)c2)C2C(=O)N(c3cccc(C(C)=O)c3)C(=O)C21 (configuration not stated) | inactive: -34.2% | –
43 | O=c1c2ccccc2c(/C=N/c2ncn[nH]2)c(O)n1Cc1ccccc1 | – | inconclusive: 1.04 µM [inhibitor, partial curve]
44 | CCOC(=O)c1cnc2nc(N3CCOCC3)nn2c1N | inactive: 26.9% | –
45 | COc1cc(/C=N\NC(=O)C(C)(C)O)ccc1OC/C=C/c1ccccc1 | – | inconclusive: 11.7 µM [inhibitor, single point]
46 | CCOc1cc(C(=O)Oc2cc(C)[nH]c(=O)c2[N+](=O)[O-])cc(OCC)c1OCC | – | inconclusive: 10.4 µM [inhibitor, single point]

Row | Structure (SMILES) | activity change, negative = inhibition | Potency
47 | O=C(NC1CCN(C(=S)NCc2ccco2)CC1)C12CC3CC(CC(C3)C1)C2 | – | inconclusive: 7.38 µM [inhibitor, partial curve]
48 | CCCn1nnnc1NCc1ccc(N(C)C)cc1 | – | inconclusive: 18.5 µM [inhibitor, single point]
49 | CC1CC(C)CN(C(=O)c2cc(-c3ccncc3)nc3ccccc23)C1 (configuration not stated) | – | inconclusive: 10.4 µM [inhibitor, single point]
50 | O=C(CSc1nc2ccccc2o1)N/N=C/c1ccc(O)c(O)c1 | inactive: 88.3% | –
51 | Cc1ccnc(SCCn2c(N3CCN(c4ccccc4)CC3)nc3c2c(=O)[nH]c(=O)n3C)n1 | – | active: 4.65 µM
52 | CCOC(=O)NN1C(=O)c2ccccc2NC1c1ccc(OC)c(OC)c1 (configuration not stated) | – | inconclusive: 11.7 µM [inhibitor, single point]
53 | Cc1nc2scc(-c3cccs3)c2c(=O)n1N | – | inconclusive: 16.5 µM [inhibitor, partial curve, poor fit]
54 | Cn1c(=O)n(C)c2cc(NS(=O)(=O)c3ccccc3[N+](=O)[O-])ccc21 | inactive: 107% | –
55 | O=C(NCC1CCN(Cc2cccc(Cl)c2)CC1)C1CCCN(c2ncnc3c2nc2n3CCCCC2)C1 (configuration not stated) | inactive: -18.6% | –
56 | Nc1nnc(SC2CC(=O)N(c3ccccc3)C2=O)s1 (configuration not stated) | inactive: 2.23% | –
57 | COc1ccc(C2N(c3ccccc3)C(=O)C2(F)F)cc1OC (configuration not stated) | inactive: 12.5% | –
58 | Cc1cc(C)cc(NC(=O)CN2CCN(CCN=CC3=C(O)CC(c4ccc(Cl)cc4)CC3=O)CC2)c1 (configuration not stated) | inactive: 23.1% | –
59 | Cc1ccc(C(=O)O/N=C/c2c(N3CCOCC3)n(C)c3ccccc23)cc1 | – | active: 3.29 µM
60 | Cc1ccc(NC(=O)NCCN2CCCCC2)cc1Cl | – | inconclusive: 18.5 µM [inhibitor, single point]
61 | Cc1ccccc1N1CCN(CCCN2C(=O)C3CCCCN3C2=O)CC1 (configuration not stated) | inactive: 7.49% | –
62 | COC(=O)c1sccc1NC(=O)CSc1ccccc1NC(=O)CNC(C)C | – | inconclusive: 10.4 µM [inhibitor, partial curve, poor fit]
63 | CCN(CC)S(=O)(=O)c1ccc(N2CCCC2)c(NC(=O)CN2C(=O)NC3(CCCC3)C2=O)c1 | – | inconclusive: 10.4 µM [inhibitor, single point]
64 | Cc1ccc2c(c1)C(c1ccncc1)=NNC(c1ccc(F)cc1)=N2 | inactive: 52% | –
65 | O=C(NNS(=O)(=O)c1ccc(F)cc1)c1ccc(O)cc1 | – | active: 10.4 µM
66 | CCC(=O)Nc1cccc(NC(=S)NC(=O)c2ccc(C)cc2)c1 | inactive: 33.9% | –
67 | CCN1CCN(c2ccc(S(=O)(=O)N3CCCCC3)cc2NC(=O)CC(C)c2ccccc2)CC1 (configuration not stated) | – | inconclusive: 7.38 µM [inhibitor, partial curve]
